Test: Fmoc solid-phase peptide synthesis; HOSu/DCC activated esters, DIPEA
Details: whole synthesis, scale of the general procedure 30 mg precursor

For semaglutide, the “final purity (method not given)” value was “purity over 98%”.

— patent US20240199717 (published 2024)
